Measurements published in the supplement of paper PMC12823440, “Inhibitors supercharge kinase turnover through native proteolytic circuits” (Nature, 2025).
Structures can show the parent of a compound that is named as a salt. The list shows a part of the results. The calls rarely recur for the same compound in another form.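 Kinases were expressed as nanoluciferase fusions in K562 cells and luminescence was read every 4 h between 2 and 18 h as percent of control, DMSO set to 100% and a positive control to 0%. A time point counts as decreased when the signal drops significantly (2 sigma). The hit call is the authors' own, does not follow from the count of time points alone, and its rule is not shown.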

Sequences of proteins named here, by UniProt entry; tags and fusion partners are left off. A change or cut given only in a name is not applied to a line headed by its entry.
UniProt Q92630: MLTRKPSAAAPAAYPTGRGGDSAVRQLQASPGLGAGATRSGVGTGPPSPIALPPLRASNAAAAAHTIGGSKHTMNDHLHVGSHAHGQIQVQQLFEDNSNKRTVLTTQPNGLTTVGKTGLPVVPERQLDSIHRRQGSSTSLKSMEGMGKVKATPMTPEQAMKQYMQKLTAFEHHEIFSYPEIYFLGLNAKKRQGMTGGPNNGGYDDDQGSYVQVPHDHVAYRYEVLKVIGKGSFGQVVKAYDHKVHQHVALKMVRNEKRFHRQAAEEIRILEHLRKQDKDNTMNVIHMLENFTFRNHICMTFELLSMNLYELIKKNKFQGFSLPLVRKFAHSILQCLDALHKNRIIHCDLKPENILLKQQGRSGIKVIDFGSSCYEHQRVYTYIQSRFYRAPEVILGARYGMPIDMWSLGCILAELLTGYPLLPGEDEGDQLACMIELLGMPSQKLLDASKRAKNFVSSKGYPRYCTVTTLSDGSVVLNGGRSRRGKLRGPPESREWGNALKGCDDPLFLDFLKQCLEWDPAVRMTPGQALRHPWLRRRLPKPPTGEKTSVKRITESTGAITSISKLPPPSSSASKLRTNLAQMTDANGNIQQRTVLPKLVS

target: DYRK2 (UniProt Q92630); assay: kinase-Nluc reporter destabilization hit call (1 = scored as downregulated) (binary); higher = compound decreases kinase abundance; details: K562; 2-18 h

kinase-Nluc reporter destabilization hit call, inactive:
CCCn1cnc2c(NCc3ccccc3)nc(NC(CC)CO)nc21 (configuration not stated) [Ca2+ channel agonist 1] (2.5 µM) 0
Brc1c(Br)c(Br)c2n[nH]nc2c1Br (10 µM) 0
C=CC(=O)Nc1cccc(Nc2nc(Nc3ccc(OCCOC)cc3)ncc2F)c1 [Spebrutinib] (10 µM) 0
CC(C)=CC/C=C(\C)[C@H]1CC[C@]2(C)[C@@H]1[C@H](O)C[C@@H]1[C@@]3(C)CC[C@H](O[C@@H]4O[C@H](CO)[C@@H](O)[C@H](O)[C@H]4O[C@@H]4O[C@H](CO)[C@@H](O)[C@H](O)[C@H]4O)C(C)(C)[C@@H]3CC[C@]12C [Ginsenoside Rg5] (10 µM) 0
Cc1ncc(-c2ccnc(Nc3ccc(S(C)(=O)=O)cc3)n2)n1C(C)C (2.5 µM) 0
CN(C)CCOc1ccc(-c2nc(-c3ccncc3)c(-c3ccc4c(c3)CC/C4=N\O)[nH]2)cc1 (10 µM) 0
CCN(CCCOc1ccc2c(Nc3cc(CC(=O)Nc4cccc(F)c4)[nH]n3)ncnc2c1)CCOP(=O)(O)O [Barasertib] (10 µM) 0
C=CC(=O)N[C@H]1COC[C@H]1Nc1ncc2cc(-c3c(Cl)c(OC)cc(OC)c3Cl)c(=O)n(C)c2n1 (10 µM) 0

target: EGFR (UniProt P00533); assay: as above; details: K562; 2-18 h

kinase-Nluc reporter destabilization hit call, inactive:
CC#CC(=O)N[C@H]1CCCN(c2c(F)cc(C(N)=O)c3[nH]c(C)c(C)c23)C1 [Branebrutinib] (10 µM) 0
O=C1NC(=NCc2cccs2)S/C1=C\c1ccc2ncccc2c1 (10 µM) 0
Cn1c(=O)n(-c2ccc(C(C)(C)C#N)cc2)c2c3cc(-c4cnc5ccccc5c4)ccc3ncc21 [Dactolisib (Tosylate)] (10 µM) 0
COC(=O)c1ccc2c(C(=Nc3ccc(N(C)C(=O)CN4CCN(C)CC4)cc3)c3ccccc3)c(O)[nH]c2c1 [Nintedanib] (2.5 µM) 0
COc1cc2ncnc(Nc3ccc(O)cc3)c2cc1OC (10 µM) 0
O=C(c1ccc(-c2ccc(Cl)cc2)o1)N(Cc1ccccn1)c1ccc(N2CCNCC2)cc1 [MK2-IN-1 (hydrochloride)] (10 µM) 0
CN1CCN(S(=O)(=O)c2ccc(-c3cnc(N)c(C(=O)Nc4cccnc4)n3)cc2)CC1 (10 µM) 0
CN(C)C[C@@H]1CCn2cc(c3ccccc32)C2=C(C(=O)NC2=O)c2cn(c3ccccc23)CCO1 [Ruboxistaurin (hydrochloride)] (10 µM) 0
COc1ccc(Oc2cc(NCCC(F)(F)F)c3ncc(-c4ccc(C(=O)NC5CC5)c(C)c4)n3n2)c(F)c1F (2.5 µM) 0
CCCCNc1ncc(-c2ccc(CN3CCOCC3)cn2)c(NC2CCC(O)CC2)n1 (configuration not stated) (10 µM) 0
O=C(Nc1cc(C(F)(F)F)ccc1N1CCN(Cc2ccccn2)CC1)c1ccc(-c2ccncc2)o1 (10 µM) 0
CC(C)(/C=C(\C#N)C(=O)N1CCC[C@@H](n2nc(-c3ccc(Oc4ccccc4)cc3F)c3c(N)ncnc32)C1)N1CCN(C2COC2)CC1 (2.5 µM) 0
CNC(=O)c1cccc2cc(Oc3ccnc4cc(OCC5(N)CC5)c(OC)cc34)ccc12 [Lucitanib] (10 µM) 0
COc1cc(F)cc([C@@H](CO)NC(=O)[C@@H](C)N2Cc3ccc(-c4nc(NC5CCOCC5)ncc4Cl)cc3C2=O)c1 [ERK1/2 inhibitor 2] (10 µM) 0
O=c1cc(-c2ccccc2)oc2c(O)c(O)ccc12 [7,8-Dihydroxyflavone] (10 µM) 0
C=CC(=O)N1CC[C@H](n2nc(C#Cc3cc(OC)cc(OC)c3)c3c(N)ncnc32)C1 [Futibatinib] (10 µM) 0
O=C1Nc2ccccc2/C1=C/c1ccc(F)cc1 (10 µM) 0
CN(C)Cc1ccc(-c2cnn3c(-c4cccc(NC(=O)c5cccc(C(F)(F)F)c5)c4)ccnc23)cc1 (2.5 µM) 0
Cc1c[nH]c(/C=C2\C(=O)Nc3ccccc32)c1CCC(=O)O (10 µM) 0
CC(C)c1ccc2oc3nc(N)c(C(=O)O)cc3c(=O)c2c1 [Amlexanox] (10 µM) 0
NS(=O)(=O)c1ccc(Nc2nc(OCC3CCCCC3)c3[nH]cnc3n2)cc1 (10 µM) 0
Cn1nc(C(C)(C)C)cc1NC(=O)Nc1ccc(Oc2ccncc2)cc1 (10 µM) 0
COc1ccc(F)c(F)c1C(=O)c1cnc(NC2CCN(S(C)(=O)=O)CC2)nc1N (2.5 µM) 0
COc1cc(C(=O)NC2CCN(C)CC2)ccc1Nc1ncc2c(n1)N(C1CCCC1)CC(F)(F)C(=O)N2C (10 µM) 0
CCN1C(=O)N(c2c(F)c(OC)cc(OC)c2F)Cc2cnc3[nH]c(CN4CCOCC4)cc3c21 [Pemigatinib] (10 µM) 0
COc1cc(Oc2ccnc3cc(OC)c(OC)cc23)ccc1NC(=O)NC(C)c1nccs1 (configuration not stated) (2.5 µM) 0
C=CC(=O)N1C[C@H](Nc2ncnc3[nH]ccc23)CC[C@@H]1C [Ritlecitinib] (10 µM) 0
CC(C)(C)S(=O)(=O)c1cc2c(Nc3ccc4scnc4c3)ncnc2cc1OCCO (2.5 µM) 0
O=C(NOC[C@H](O)CO)c1ccc(F)c(F)c1Nc1ccc(I)cc1F (2.5 µM) 0
Cc1cccc([C@@H](CO)NC(=O)[C@@H](C)N2Cc3ccc(-c4nc(NC5CCOCC5)ncc4Cl)cc3C2=O)c1 [ERK1/2 inhibitor 1] (10 µM) 0
CNC(=O)c1cc(Oc2ccc(NC(=O)Nc3cc(C(C)(C)C)nn3-c3ccc4ncccc4c3)c(F)c2)ccn1 [Rebastinib] (2.5 µM) 0
CCCn1cnc2c(NCc3ccccc3)nc(NC(CC)CO)nc21 (configuration not stated) [Ca2+ channel agonist 1] (2.5 µM) 0
Brc1c(Br)c(Br)c2n[nH]nc2c1Br (10 µM) 0
C=CC(=O)Nc1cccc(Nc2nc(Nc3ccc(OCCOC)cc3)ncc2F)c1 [Spebrutinib] (10 µM) 0
CC(C)=CC/C=C(\C)[C@H]1CC[C@]2(C)[C@@H]1[C@H](O)C[C@@H]1[C@@]3(C)CC[C@H](O[C@@H]4O[C@H](CO)[C@@H](O)[C@H](O)[C@H]4O[C@@H]4O[C@H](CO)[C@@H](O)[C@H](O)[C@H]4O)C(C)(C)[C@@H]3CC[C@]12C [Ginsenoside Rg5] (10 µM) 0
Cc1ncc(-c2ccnc(Nc3ccc(S(C)(=O)=O)cc3)n2)n1C(C)C (2.5 µM) 0
CN(C)CCOc1ccc(-c2nc(-c3ccncc3)c(-c3ccc4c(c3)CC/C4=N\O)[nH]2)cc1 (10 µM) 0
CCN(CCCOc1ccc2c(Nc3cc(CC(=O)Nc4cccc(F)c4)[nH]n3)ncnc2c1)CCOP(=O)(O)O [Barasertib] (10 µM) 0
C=CC(=O)N[C@H]1COC[C@H]1Nc1ncc2cc(-c3c(Cl)c(OC)cc(OC)c3Cl)c(=O)n(C)c2n1 (10 µM) 0
